Literature values, collected in patent US6555530B1, “Use of estrogens and delta-gonadien-21-Ol-3,20-diones for treating insulin dependent and non-insulin dependent diabetes” (Novo Nordisk A/S, priority 1999, dated 2003).
At least one compound was matched to its structure with a doubt left.

What was measured:
[1] = test system: diabetic KK mice; conditions: daily administrations
[2] = test system: C57BL6J-ob/ob mice
[3] = test system: C57BL/KsJ-db/db mice

## C[C@]12CC[C@@H]3c4ccc(O)cc4CC[C@H]3[C@@H]1CC[C@@H]2O [estradiol]
[1]
  blood glucose levels: normalized the blood glucose levels
  glucosuria: eliminated glucosuria
[2]
  blood glucose levels: lowered the blood glucose levels
[3]
  blood glucose levels: lowered the blood glucose levels
